From patent US20030092760A1, “Therapeutic agent for renal failure” (Toray Industries, Inc., priority 2001, published 2003) come the findings set out here.

The subject of the series is ⅚ nephrectomized rat model. Put plainly: Effect on ⅚ nephrectomized rat model: renal functions. The series is classed as in vivo, Wistar rats. As for the experimental part: The effect of beraprost sodium on a ⅚ nephrectomized rat model, which has been widely used as a model animal for renal failure, was examined. Two-thirds of the left kidney was removed from each of 4-week-old male Wistar rats (Charles River Japan Inc.) with a razor, and all of the right kidney was then removed therefrom one week after. Three weeks after the initial surgery, blood was collected from each rat through the tail vein and serum creatinine and BUN levels were determined from the blood. At this point of time, the urine was also collected for 24 hours to determine the mass of proteins in the urine. The rats were allocated to one of the treatment groups by the stratifying continuous randomization method based on the mass of proteins in the urine and the body weight (n=8 per group). […] Three weeks after the initial surgery, beraprost sodium or captopril (SIGMA, i.e., a positive control) was orally administered to each rat twice a day everyday, beginning the day on which administration of a drug was started and continued through five weeks after the administration. The determination of the renal functions was performed both three weeks and five weeks after the initial administration of a drug. The photographic images of the renal tissue were observed only five weeks after the initial administration.

Consider `CC#CCC(C)[C@H](O)/C=C/C1[C@H](O)C[C@@H]2Oc3c(CCCC(=O)[O-])cccc3[C@H]12.[Na+]` (mixture of isomers) [Beraprost sodium, beraprost sodium], for which the Body weight reads like this: (100 μg/kg oral twice a day, five weeks after the administration of a drug) 228.7 ± 5.7 g; (100 μg/kg oral twice a day, three weeks after the administration of a drug) 215.5 ± 5.3 g; (300 μg/kg oral twice a day, five weeks after the administration of a drug) 245.8 ± 8.0 g; (300 μg/kg oral twice a day, three weeks after the administration of a drug) 221.0 ± 6.3 g.

For the compound `C[C@H](CS)C(=O)N1CCC[C@H]1C(=O)O` [Captopril, captopril, reference compound], the Body weight is, setting by setting: (50 mg/kg oral twice a day, five weeks after the administration of a drug) 236.4 ± 5.7 g; (50 mg/kg oral twice a day, three weeks after the administration of a drug) 220.6 ± 5.4 g.
